Reference: the supplement of paper PMC8975748
Counter-ions that a name gives are not always drawn. ± gives the standard deviation of the averaged measurements. The list shows a part of the results. These are raw signals, not scaled to a control.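 A single yeast strain with four plasmids, each encoding a fluorescent protein and an amino-acid or uracil biosynthesis gene, seeds the community. Stochastic plasmid loss yields mixed prototroph and auxotroph subpopulations. Fixed cells were counted via automated confocal fluorescence imaging; DMSO-treated wells were the vehicle reference.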

Each molecule was assayed on Saccharomyces cerevisiae BY4741 SeMeCo community (assay: imaged cell count per well (cells); higher = more cells). Conditions: 10 µM; 24 h; SM minimal medium.
Method: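 Same SeMeCo high-content imaging drug screen: Selleck FDA-approved drugs at 10 µM, 24 h in SM medium, 384-well plates, 3 replicates.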

SMILES	imaged cell count per well
OCCN1CCN(CC/C=C2/c3ccccc3Sc3ccc(C(F)(F)F)cc32)CC1 [Flupenthixol dihydrochloride]	26400 ± 1300
Nc1nc(/C(=C/CC(=O)O)C(=O)N[C@@H]2C(=O)N3C(C(=O)O)=CCS[C@H]23)cs1 [Ceftibuten dihydrate]	17400 ± 5300
COc1ccc2cc(CCC(C)=O)ccc2c1 [Nabumetone]	26200 ± 1400
N[C@@H]1CN(c2c(F)cc3c(=O)c(C(=O)O)cn([C@@H]4C[C@@H]4F)c3c2Cl)CC12CC2 [Sitafloxacin Hydrate]	28200 ± 2400
CN[C@H](CC(C)C)C(=O)N[C@H]1C(=O)N[C@@H](CC(N)=O)C(=O)N[C@H]2C(=O)N[C@H]3C(=O)N[C@H](C(=O)N[C@H](C(=O)O)c4cc(O)cc(O)c4-c4cc3ccc4O)[C@H](O)c3ccc(c(Cl)c3)Oc3cc2cc(c3O[C@@H]2O[C@H](CO)[C@@H](O)[C@H](O)[C@H]2O[C@H]2C[C@](C)(N)[C@H](O)[C@H](C)O2)Oc2ccc(cc2Cl)[C@H]1O [Vancomycin HCl]	22100 ± 3100
NCC[C@H](O)C(=O)N[C@@H]1C[C@H](N)[C@@H](O[C@H]2O[C@H](CN)[C@@H](O)[C@H](O)[C@H]2O)[C@H](O)[C@H]1O[C@H]1O[C@H](CO)[C@@H](O)[C@H](N)[C@H]1O [Amikacin disulfate]	27000 ± 5800
CC[C@@H](CO)NCCN[C@@H](CC)CO [Ethambutol 2HCl]	22100 ± 2700
CO/N=C(\C(=O)N[C@@H]1C(=O)N2C(C(=O)O)=C(COC(N)=O)CS[C@H]12)c1ccco1 [Cefuroxime sodium]	26700 ± 500
CCCCC(F)(F)[C@@]1(O)CC[C@H]2[C@@H](CC(=O)[C@@H]2CCCCCCC(=O)O)O1 [Lubiprostone]	25700 ± 3200
CCC(=O)NS(=O)(=O)c1ccc(-c2c(-c3ccccc3)noc2C)cc1 [Parecoxib Sodium]	19000 ± 9300
C[C@]12CC[C@@H]3c4ccc(O)cc4CC[C@H]3[C@@H]1CCC2=O [Estrone]	26000 ± 3500
COc1cccc2c1C(=O)c1c(O)c3c(c(O)c1C2=O)C[C@@](O)(C(=O)CO)C[C@@H]3O[C@H]1C[C@H](N)[C@H](O[C@@H]2CCCCO2)[C@H](C)O1 [Pirarubicin]	27100 ± 4200
CN1[C@@H]2CC[C@H]1C[C@@H](OC(c1ccccc1)c1ccccc1)C2 [Benztropine mesylate]	27800 ± 5700
CCCCCCCCOc1ccccc1C(=O)Nc1ccc(C(=O)OCC[N+](C)(CC)CC)cc1 [Otilonium Bromide]	5170 ± 2000
CO[C@@]1(NC(=O)CSC[C@@H](N)C(=O)O)C(=O)N2C(C(=O)O)=C(CSc3nnnn3C)CS[C@@H]21 [Cefminox Sodium]	22600 ± 9800
CC[C@H]1OC(=O)[C@H](C)[C@@H](O[C@H]2C[C@@](C)(OC)[C@@H](O)[C@H](C)O2)[C@H](C)[C@@H](O[C@@H]2O[C@H](C)C[C@H](N(C)C)[C@H]2O)[C@](C)(O)C[C@@H](C)CN[C@H](C)[C@@H](O)[C@]1(C)O [Azathramycin]	26000 ± 4900
O=C1CCc2cc(OCCCCc3nnnn3C3CCCCC3)ccc2N1 [Cilostazol]	26000 ± 4800
O=C(CCCN1CCN(c2ccccn2)CC1)c1ccc(F)cc1 [Azaperone]	27800 ± 1900
CO[C@@]1(NC(=O)C(C(=O)O)c2ccc(O)cc2)C(=O)N2C(C(=O)O)=C(CSc3nnnn3C)CO[C@@H]21 (some centres not stated) [Latamoxef sodium]	17300 ± 8900
NC(=O)Cc1cccc(C(=O)c2ccccc2)c1N [Nepafenac]	28700 ± 5200
O=C(Nc1cccc(C2=NCCN2)c1)Nc1cccc(C2=NCCN2)c1 [Imidocarb dipropionate]	25700 ± 520
CCN(CC)CCOc1ccc2c(c1)C(=O)c1cc(OCCN(CC)CC)ccc1-2 [Tilorone dihydrochloride]	26000 ± 4200
CC[C@H]1OC(=O)[C@H](C)[C@@H](O[C@H]2C[C@@](C)(OC)[C@@H](O)[C@H](C)O2)[C@H](C)[C@@H](O[C@@H]2O[C@H](C)C[C@H](N(C)C)[C@H]2O)[C@](C)(O)C[C@@H](C)C(=O)[C@H](C)[C@@H](O)[C@]1(C)O [Erythromycin thiocyanate]	30300 ± 2300
C#CCC(Cc1cnc2nc(N)nc(N)c2n1)c1ccc(C(=O)N[C@@H](CCC(=O)O)C(=O)O)cc1 (some centres not stated) [Pralatrexate]	13500 ± 2100
C#CCN[C@@H]1CCc2ccccc21 [Rasagiline]	22300 ± 3200
Cc1c(-c2ccccc2)oc2c(C(=O)OCCN3CCCCC3)cccc2c1=O [Flavoxate HCl]	22100 ± 4900
Cc1cc(/C=C/c2ccc3cc(N(C)C)ccc3[n+]2C)c(C)n1-c1ccccc1 [pyrvinium]	25400 ± 5600

3 structures out of the list, sorted by number of heavy atoms, smallest number first.
SMILES	imaged cell count per well
CN1[C@@H]2CC[C@H]1C[C@@H](OC(c1ccccc1)c1ccccc1)C2 [Benztropine mesylate]	27800 ± 5700
O=C(CCCN1CCN(c2ccccn2)CC1)c1ccc(F)cc1 [Azaperone]	27800 ± 1900
CCCCCCCCOc1ccccc1C(=O)Nc1ccc(C(=O)OCC[N+](C)(CC)CC)cc1 [Otilonium Bromide]	5170 ± 2000
